Literature values as cited in US9034798B2, “Capture compounds, collections thereof and methods for analyzing the proteome and complex compositions” (CAPROTEC BIOANALYTICS GMBH, priority 2003, dated 2015).
At least one structure is not confirmed: it was looked up by name or label, or the drawing left a doubt.

Settings: patients

SMILES | effect on triglycerides
CCc1ccc(CCOc2ccc(CC3SC(=O)NC3=O)cc2)nc1 (stereo not drawn) [Actos, Pioglitazone] | decrease
CN(CCOc1ccc(CC2SC(=O)NC2=O)cc1)c1ccccn1 (stereo not drawn) [Avandia, Rosiglitazone] | variable
Cc1c(C)c2c(c(C)c1O)CCC(C)(COc1ccc(CC3SC(=O)NC3=O)cc1)O2 (stereo not drawn) [Rezulin, Troglitazone] | decrease
